The target of experiment [1] is T1, GST-GRIP wild type (GRIP domain of Golgin245 in pGEX-6P1) (UniProt Q13439).
T1 sequence: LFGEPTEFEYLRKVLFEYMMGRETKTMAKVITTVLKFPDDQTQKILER
The experiment in a line: pull-down; IBRP assay: GST-bait on glutathione beads (16 µg/µl), HEK293 lysate with GFP-prey, 100 µM GDP; 30 min at 4°C, washes with 300 mM NaCl, bead fluorescence imaged; only the target purified.

For experiment [2], the target named is T1, GST-GRIP wild type (GRIP domain of Golgin245 in pGEX-6P1). The experiment in a line: pull-down; imaging beads-retained prey (IBRP) assay: GST-bait on glutathione beads (16 µg/µl), HEK293 lysate with GFP-prey, 100 µM GMPPNP; 30 min at 4°C, washes with 300 mM NaCl, bead fluorescence imaged; GFP lysate as control; only the target purified.

Among the data in publication PMC3612083, “Imaging Beads-Retained Prey Assay for Rapid and Quantitative Protein-Protein Interaction” (PLoS ONE, 2013) are binding values, retold here.

No constants are given. Whether binding was seen depends on the method and setting. Binding seen in cells or lysates may run through a third protein. Some entries that bind do so weakly or less than the wild type. Tags and fused reporters may be left off the sequences shown.

B1: Arl1-GFP (wild type rat Arl1 in pEGFP-N1) (natural protein, UniProt P61212 1-181, looked up)
chain: MGGFFSSIFSSLFGTREMRILILGLDGAGKTTILYRLQVGEVVTTIPTIGFNVETVTYKNLKFQVWDLGGQTSIRPYWRCYYSNTDAVIYVVDSCDRDRIGISKSELVAMLEEEELRKAILVVFANKQDMEQAMTPSEMANALGLPALKDRKWQIFKTSATKGTGLDEAMEWLVETLKSRQ
notes: Arl1, ARF family small GTPase, rat, wild type; source: HEK293, transfected, in lysate
B1: the binding result in experiment [1] and in experiment [2] was “binds” each time.
